This is one part of the list.
Legend:
Assay in all cases: log2 fold change, soluble protein after heating vs DMSO (PISA); higher = thermal stabilisation; K562 cells, 10 uM, 30 min; active = over 0.2 and 3.5 SD of the protein, either way, in both replicates (recomputed)
[1] = compound: C1=CC=C(C=C1)[C@H](COC2=CC3=C(C=C2)NC(=O)N3)NC(=O)C4=CC=CN(C4=O)CC5=CC(=C(C=C5)F)F
Procedure, shortened: (§1)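 Soluble protein was quantified by TMTpro 16plex LC-MS/MS after channel sums were equalised. It was obtained as the supernatant after 21,000xg for 90 min from pooled aliquots of K562 cells (2×10^6 cells/mL, 10 μM compound, 30 min) heated for 3 min across 48°C-58°C and extracted in PBS with 0.5% NP-40 at 4°C. Thermal stability values are relative to control samples and come from duplicates. They are given as log2 fold changes.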

Sequences of proteins named here, by UniProt entry; tags and fusion partners are left off. A change or cut given only in a name is not applied to a line headed by its entry.
UniProt P08236: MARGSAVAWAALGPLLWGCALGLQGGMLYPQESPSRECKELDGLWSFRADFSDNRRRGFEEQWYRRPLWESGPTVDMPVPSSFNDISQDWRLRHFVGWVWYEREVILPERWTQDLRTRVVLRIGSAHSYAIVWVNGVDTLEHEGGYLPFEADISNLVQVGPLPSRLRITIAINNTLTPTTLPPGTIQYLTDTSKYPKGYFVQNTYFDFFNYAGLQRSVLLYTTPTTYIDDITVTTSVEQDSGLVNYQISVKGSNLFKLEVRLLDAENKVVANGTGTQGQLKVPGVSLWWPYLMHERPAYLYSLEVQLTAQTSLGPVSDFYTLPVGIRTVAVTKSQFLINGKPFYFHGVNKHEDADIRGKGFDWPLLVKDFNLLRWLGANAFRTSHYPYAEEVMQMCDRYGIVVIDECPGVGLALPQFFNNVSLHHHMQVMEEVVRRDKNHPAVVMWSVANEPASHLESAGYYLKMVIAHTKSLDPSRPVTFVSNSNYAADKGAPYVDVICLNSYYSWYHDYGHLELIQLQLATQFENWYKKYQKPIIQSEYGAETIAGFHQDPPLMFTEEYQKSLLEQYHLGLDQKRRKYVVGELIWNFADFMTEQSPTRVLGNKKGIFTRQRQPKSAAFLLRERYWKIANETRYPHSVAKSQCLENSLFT
UniProt Q9UBN7: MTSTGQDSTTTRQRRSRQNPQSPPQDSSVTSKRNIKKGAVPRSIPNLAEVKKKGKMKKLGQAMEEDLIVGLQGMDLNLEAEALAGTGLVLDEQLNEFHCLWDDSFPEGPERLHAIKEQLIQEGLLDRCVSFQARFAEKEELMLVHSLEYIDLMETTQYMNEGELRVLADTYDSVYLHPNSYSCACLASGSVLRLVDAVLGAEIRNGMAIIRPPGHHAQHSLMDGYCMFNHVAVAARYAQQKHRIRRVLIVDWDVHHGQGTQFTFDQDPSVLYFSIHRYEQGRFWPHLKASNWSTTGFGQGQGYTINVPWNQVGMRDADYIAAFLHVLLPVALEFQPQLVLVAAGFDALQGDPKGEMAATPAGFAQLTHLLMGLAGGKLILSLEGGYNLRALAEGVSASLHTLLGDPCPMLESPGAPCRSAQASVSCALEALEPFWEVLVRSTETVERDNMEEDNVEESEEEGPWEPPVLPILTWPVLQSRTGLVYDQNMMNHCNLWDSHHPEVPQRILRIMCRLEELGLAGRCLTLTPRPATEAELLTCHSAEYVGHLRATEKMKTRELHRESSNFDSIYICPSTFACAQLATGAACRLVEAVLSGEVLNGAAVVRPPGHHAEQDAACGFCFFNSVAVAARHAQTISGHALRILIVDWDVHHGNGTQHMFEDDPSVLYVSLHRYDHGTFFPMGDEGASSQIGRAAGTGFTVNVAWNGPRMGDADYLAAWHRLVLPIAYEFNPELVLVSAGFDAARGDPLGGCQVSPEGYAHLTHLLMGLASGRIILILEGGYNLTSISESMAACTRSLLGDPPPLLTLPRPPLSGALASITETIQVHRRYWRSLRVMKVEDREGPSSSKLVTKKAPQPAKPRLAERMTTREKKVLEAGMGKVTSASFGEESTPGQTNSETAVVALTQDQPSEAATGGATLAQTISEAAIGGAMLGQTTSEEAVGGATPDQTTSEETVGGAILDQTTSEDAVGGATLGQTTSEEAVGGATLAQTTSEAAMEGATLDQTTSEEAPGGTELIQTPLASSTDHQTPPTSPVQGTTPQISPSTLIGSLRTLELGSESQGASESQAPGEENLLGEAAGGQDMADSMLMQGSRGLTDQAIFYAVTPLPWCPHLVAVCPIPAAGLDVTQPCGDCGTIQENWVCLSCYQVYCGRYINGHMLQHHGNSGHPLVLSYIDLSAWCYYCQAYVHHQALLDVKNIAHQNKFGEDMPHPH
UniProt P02100: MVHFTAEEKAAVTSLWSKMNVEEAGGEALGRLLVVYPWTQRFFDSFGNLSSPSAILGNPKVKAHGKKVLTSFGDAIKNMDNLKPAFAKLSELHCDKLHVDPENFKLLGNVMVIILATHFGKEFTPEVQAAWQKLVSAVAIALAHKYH
UniProt P09105: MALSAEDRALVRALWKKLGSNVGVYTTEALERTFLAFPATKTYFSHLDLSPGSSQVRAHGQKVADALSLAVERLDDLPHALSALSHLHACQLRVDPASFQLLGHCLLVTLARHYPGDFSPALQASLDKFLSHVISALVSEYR
UniProt Q9Y5Z4: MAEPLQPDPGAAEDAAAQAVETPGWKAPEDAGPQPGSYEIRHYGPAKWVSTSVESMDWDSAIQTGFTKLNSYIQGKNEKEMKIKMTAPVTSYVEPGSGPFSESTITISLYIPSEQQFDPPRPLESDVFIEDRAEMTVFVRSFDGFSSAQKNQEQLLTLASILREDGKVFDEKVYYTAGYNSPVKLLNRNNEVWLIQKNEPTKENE
UniProt O00165, whole entry, looked up: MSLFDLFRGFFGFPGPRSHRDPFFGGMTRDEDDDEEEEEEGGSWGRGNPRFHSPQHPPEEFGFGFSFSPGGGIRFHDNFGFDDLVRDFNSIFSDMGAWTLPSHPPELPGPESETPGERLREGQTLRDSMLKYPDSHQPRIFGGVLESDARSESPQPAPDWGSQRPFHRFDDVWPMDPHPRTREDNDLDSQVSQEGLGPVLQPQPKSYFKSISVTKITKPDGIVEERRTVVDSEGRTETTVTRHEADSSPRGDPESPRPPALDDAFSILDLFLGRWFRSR
UniProt Q13889: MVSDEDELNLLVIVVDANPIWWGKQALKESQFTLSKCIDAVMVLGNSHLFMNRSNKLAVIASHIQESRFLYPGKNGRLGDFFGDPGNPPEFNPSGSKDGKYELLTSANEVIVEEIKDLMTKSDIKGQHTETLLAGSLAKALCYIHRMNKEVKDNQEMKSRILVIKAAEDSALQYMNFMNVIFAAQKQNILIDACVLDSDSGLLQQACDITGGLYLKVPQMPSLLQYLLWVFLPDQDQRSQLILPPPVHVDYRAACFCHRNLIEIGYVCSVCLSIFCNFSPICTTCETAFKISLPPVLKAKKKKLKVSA
UniProt P52657, whole entry, looked up: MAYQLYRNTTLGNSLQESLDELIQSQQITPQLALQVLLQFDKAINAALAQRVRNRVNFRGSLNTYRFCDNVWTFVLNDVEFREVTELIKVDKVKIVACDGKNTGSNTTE
UniProt Q9Y450, whole entry, looked up: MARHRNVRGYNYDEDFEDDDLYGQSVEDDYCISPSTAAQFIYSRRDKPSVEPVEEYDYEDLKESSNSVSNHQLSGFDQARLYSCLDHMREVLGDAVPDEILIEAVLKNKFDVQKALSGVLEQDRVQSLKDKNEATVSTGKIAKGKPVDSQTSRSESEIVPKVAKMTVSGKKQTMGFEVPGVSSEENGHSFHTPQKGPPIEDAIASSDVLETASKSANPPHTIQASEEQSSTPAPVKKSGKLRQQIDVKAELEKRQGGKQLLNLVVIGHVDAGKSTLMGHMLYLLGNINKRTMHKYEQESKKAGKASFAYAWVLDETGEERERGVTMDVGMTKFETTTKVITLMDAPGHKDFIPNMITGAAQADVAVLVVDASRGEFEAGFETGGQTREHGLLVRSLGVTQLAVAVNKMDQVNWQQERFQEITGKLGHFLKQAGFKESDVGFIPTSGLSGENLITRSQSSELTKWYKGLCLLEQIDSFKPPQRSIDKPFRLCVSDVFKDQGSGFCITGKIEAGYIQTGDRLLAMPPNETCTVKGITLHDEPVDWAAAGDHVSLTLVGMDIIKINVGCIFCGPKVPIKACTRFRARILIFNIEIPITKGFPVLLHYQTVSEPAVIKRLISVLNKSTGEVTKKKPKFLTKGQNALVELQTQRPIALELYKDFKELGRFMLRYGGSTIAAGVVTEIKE
UniProt Q12789: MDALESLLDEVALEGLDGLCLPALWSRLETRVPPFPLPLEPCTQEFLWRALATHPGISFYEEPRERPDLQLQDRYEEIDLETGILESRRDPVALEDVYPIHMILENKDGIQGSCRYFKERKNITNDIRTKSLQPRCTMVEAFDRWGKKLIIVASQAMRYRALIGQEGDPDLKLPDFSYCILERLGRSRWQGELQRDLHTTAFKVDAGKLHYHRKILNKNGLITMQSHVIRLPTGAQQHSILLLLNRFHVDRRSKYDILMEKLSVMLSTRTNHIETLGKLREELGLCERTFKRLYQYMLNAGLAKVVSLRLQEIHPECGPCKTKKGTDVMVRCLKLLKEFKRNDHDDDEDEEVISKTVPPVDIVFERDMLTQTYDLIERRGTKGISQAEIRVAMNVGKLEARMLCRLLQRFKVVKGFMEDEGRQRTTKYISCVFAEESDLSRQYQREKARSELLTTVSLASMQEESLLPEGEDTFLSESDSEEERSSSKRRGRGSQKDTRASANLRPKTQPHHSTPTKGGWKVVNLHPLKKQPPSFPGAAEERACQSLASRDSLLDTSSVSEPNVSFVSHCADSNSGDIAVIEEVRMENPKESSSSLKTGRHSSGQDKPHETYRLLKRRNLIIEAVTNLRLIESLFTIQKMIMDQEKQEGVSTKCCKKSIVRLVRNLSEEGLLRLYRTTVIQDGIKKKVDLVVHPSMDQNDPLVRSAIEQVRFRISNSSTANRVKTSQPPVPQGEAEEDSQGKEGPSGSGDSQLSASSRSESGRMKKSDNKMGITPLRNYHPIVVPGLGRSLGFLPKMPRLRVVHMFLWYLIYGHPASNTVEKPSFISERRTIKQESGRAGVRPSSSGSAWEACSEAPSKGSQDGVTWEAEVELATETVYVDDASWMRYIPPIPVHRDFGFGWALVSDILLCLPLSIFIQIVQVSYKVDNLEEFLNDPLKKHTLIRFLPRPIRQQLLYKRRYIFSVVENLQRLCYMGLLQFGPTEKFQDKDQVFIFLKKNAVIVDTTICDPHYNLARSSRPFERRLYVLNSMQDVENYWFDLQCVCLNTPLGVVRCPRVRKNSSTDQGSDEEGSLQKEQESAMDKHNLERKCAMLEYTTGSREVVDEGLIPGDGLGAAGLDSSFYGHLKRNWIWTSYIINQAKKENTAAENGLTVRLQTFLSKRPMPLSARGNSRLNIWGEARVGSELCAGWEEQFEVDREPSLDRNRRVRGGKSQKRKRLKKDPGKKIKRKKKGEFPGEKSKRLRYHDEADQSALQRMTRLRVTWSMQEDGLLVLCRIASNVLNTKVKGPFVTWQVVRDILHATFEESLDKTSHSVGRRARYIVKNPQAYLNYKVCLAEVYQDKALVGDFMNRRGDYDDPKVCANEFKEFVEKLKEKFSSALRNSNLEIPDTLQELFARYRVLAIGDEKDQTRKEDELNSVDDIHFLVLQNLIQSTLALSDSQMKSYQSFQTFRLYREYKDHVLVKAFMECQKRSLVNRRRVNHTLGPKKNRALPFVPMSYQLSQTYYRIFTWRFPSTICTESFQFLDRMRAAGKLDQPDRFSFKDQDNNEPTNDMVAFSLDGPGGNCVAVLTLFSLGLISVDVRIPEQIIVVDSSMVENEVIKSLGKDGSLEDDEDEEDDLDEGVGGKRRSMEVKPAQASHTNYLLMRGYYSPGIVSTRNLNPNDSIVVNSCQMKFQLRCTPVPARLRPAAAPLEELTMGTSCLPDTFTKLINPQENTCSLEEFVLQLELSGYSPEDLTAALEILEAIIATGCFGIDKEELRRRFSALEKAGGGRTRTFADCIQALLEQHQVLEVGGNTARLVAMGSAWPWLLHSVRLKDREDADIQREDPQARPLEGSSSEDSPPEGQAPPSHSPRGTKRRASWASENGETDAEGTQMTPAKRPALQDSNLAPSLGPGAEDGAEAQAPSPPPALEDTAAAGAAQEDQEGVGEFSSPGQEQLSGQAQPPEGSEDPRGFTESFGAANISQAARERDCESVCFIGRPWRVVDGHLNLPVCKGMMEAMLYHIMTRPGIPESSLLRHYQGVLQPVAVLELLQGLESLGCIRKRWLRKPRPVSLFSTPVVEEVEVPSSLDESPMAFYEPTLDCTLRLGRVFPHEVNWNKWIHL
UniProt P0C0S5, whole entry, looked up: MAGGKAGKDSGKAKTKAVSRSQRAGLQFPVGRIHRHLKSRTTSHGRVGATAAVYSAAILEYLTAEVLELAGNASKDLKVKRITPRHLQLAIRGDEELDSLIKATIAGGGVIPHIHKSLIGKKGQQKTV
UniProt Q9P035: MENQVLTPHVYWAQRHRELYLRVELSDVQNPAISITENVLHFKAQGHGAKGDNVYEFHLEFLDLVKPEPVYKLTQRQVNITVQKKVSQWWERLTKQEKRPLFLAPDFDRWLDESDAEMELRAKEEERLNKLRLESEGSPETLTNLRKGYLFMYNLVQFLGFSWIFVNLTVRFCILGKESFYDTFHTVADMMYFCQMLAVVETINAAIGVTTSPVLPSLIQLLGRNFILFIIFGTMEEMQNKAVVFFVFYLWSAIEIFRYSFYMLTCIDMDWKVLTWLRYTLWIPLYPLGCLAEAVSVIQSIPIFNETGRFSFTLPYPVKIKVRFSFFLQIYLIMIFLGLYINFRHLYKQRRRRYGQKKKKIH
UniProt Q9H0R4: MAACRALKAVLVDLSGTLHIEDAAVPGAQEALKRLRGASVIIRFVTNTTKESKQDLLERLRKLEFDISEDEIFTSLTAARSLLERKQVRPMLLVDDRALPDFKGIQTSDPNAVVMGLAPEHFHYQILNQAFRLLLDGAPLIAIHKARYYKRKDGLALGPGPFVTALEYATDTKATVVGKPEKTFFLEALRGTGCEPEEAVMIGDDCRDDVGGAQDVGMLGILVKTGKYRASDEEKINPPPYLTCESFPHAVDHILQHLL

[2] = compound: CC1=C(SC2=C1C(=N[C@H](C3=NN=C(N32)C)CC(=O)N)C4=CC=C(C=C4)Cl)C
Procedure, shortened: as §1

[3] = compound: CC1=C2C(=CC=C1)N=C(N(C2=O)C3=CC=CC=C3C)CN4C=NC5=C(N=CN=C54)N
Procedure, shortened: as §1

[4] = compound: Cc1sc2c(c1C)C(c1ccc(Cl)cc1)=N[C@@H](CC(=O)OC(C)(C)C)c1nnc(C)n1-2
Procedure, shortened: as §1

[5] = compound: c1ccc([C@@H]2C[C@H]2NC2CCNCC2)cc1
Procedure, shortened: as §1

Measured: log2 fold change

HCFC1 isoform 4 (UniProt P51610)
inactive: [1] -0.069 | [2] 0.06 | [3] 0.036 | [4] -0.004 | [5] -0.046

HAUS4 (UniProt Q9H6D7)
inactive: [1] 0.094 | [2] -0.066 | [3] 0.077 | [4] -0.021 | [5] -0.002

HDAC10 (UniProt Q969S8)
inactive: [1] -0.061 | [2] -0.028 | [3] 0.07 | [4] 0.12 | [5] -0.051

GUSB (UniProt P08236)
inactive: [1] 0.019 | [2] -0.057 | [3] -0.048 | [4] 0.039 | [5] 0.053

HDAC6 (UniProt Q9UBN7)
inactive: [1] 0.159 | [2] 0.008 | [3] -0.001 | [4] -0.002 | [5] 0.009

Reprinted from the results shown (2 entries):
HDAC10 (UniProt Q969S8)
inactive: [1] -0.061 | [2] -0.028 | [3] 0.07 | [4] 0.12 | [5] -0.051

GUSB (UniProt P08236)
inactive: [1] 0.019 | [2] -0.057 | [3] -0.048 | [4] 0.039 | [5] 0.053

(next part)

HDLBP (UniProt Q00341)
inactive: [1] 0.04 | [2] -0.132 | [3] -0.039 | [4] 0.182 | [5] 0.014

HARS2 (UniProt P49590)
inactive: [1] 0.042 | [2] -0.023 | [3] 0.008 | [4] -0.011 | [5] 0.048

GSTM4 (UniProt Q03013)
inactive: [1] 0.064 | [2] 0.063 | [3] -0.114 | [4] -0.027 | [5] 0.03

HBE1 (UniProt P02100)
inactive: [1] -0.036 | [2] 0.111 | [3] 0.026 | [4] -0.095 | [5] -0.07

H1-4 (UniProt P10412)
inactive: [1] 0.177 | [2] -0.379 | [3] -0.27 | [4] 0.067 | [5] 0

HBQ1 (UniProt P09105)
inactive: [1] 0.023 | [2] 0.135 | [3] 0.092 | [4] -0.147 | [5] -0.037

HEBP2 (UniProt Q9Y5Z4)
inactive: [1] -0.029 | [2] 0.024 | [3] -0.036 | [4] 0.001 | [5] 0.009

HDHD3 (UniProt Q9BSH5)
inactive: [1] -0.025 | [2] 0.071 | [3] 0.064 | [4] -0.129 | [5] 0

HARS (UniProt P12081)
inactive: [1] 0.005 | [2] 0 | [3] -0.015 | [4] 0.009 | [5] 0.022

GSTZ1 (UniProt G3V4T6)
inactive: [1] -0.034 | [2] 0.093 | [3] 0.091 | [4] -0.027 | [5] 0

HBG1 (UniProt P69891)
inactive: [1] 0.034 | [2] 0.152 | [3] 0.043 | [4] -0.113 | [5] -0.035

GSTP1 (UniProt P09211)
inactive: [1] -0.013 | [2] 0.039 | [3] 0.005 | [4] -0.013 | [5] -0.016

GYG1 (UniProt P46976)
inactive: [1] 0.02 | [2] -0.077 | [3] -0.046 | [4] -0.008 | [5] -0.019

HEXA (UniProt P06865)
inactive: [1] 0.042 | [2] -0.004 | [3] 0.052 | [4] -0.018 | [5] 0.024

H3-3A (UniProt P84243)
inactive: [1] -0.004 | [2] 0.053 | [3] 0.154 | [4] -0.058 | [5] -0.102

HELQ (UniProt Q8TDG4)
inactive: [1] 0.101 | [2] -0.045 | [3] 0.19 | [4] -0.03 | [5] 0.136

GTF3C6 (UniProt Q969F1)
inactive: [1] 0.016 | [2] -0.09 | [3] 0.065 | [4] 0.056 | [5] 0.116

HDAC1 (UniProt Q13547)
inactive: [1] 0.004 | [2] 0 | [3] -0.004 | [4] 0.03 | [5] 0.154

HDGF (UniProt P51858)
inactive: [1] 0.011 | [2] 0.012 | [3] 0.036 | [4] -0.015 | [5] 0.017

HDHD5 (UniProt Q9BXW7)
inactive: [1] -0.073 | [2] 0.043 | [3] 0.066 | [4] 0.021 | [5] -0.02

GSKIP (UniProt Q9P0R6)
inactive: [1] 0.054 | [2] 0.053 | [3] 0.031 | [4] -0.185 | [5] -0.103

HAX1 (UniProt O00165)
inactive: [1] -0.112 | [2] -0.008 | [3] 0.063 | [4] 0.008 | [5] -0.002

GTF2H3 (UniProt Q13889)
inactive: [1] 0.062 | [2] 0.065 | [3] 0.099 | [4] 0.048 | [5] 0.017

HACL1 (UniProt Q9UJ83)
inactive: [1] 0.002 | [2] -0.01 | [3] 0.027 | [4] -0.012 | [5] -0.017

GTF2A2 (UniProt P52657)
inactive: [1] 0.003 | [2] 0.057 | [3] 0.092 | [4] -0.064 | [5] -0.017

HBS1L isoform 2 (UniProt Q9Y450)
inactive: [1] -0.012 | [2] -0.019 | [3] 0.112 | [4] 0.129 | [5] -0.046

H1FX (UniProt Q92522)
inactive: [1] 0.088 | [2] -0.146 | [3] -0.21 | [4] 0.135 | [5] -0.005

GTPBP3 isoform 2 (UniProt Q969Y2)
inactive: [1] -0.032 | [2] -0.006 | [3] 0.097 | [4] -0.029 | [5] -0.026

HCLS1 (UniProt P14317)
inactive: [1] 0.039 | [2] 0.04 | [3] -0.02 | [4] -0.016 | [5] 0.029

GTF3C1 (UniProt Q12789)
inactive: [1] -0.414 | [2] -0.222 | [3] 0.198 | [4] -0.021 | [5] 0.06

H2AZ1 (UniProt P0C0S5)
inactive: [1] 0.12 | [2] -0.153 | [3] -0.247 | [4] -0.021 | [5] 0.123

GSTM2 (UniProt P28161)
inactive: [1] -0.034 | [2] 0.247 | [3] 0.038 | [4] -0.039 | [5] -0.016

HACD3 (UniProt Q9P035)
inactive: [1] 0.011 | [2] 0.049 | [3] 0.058 | [4] -0.047 | [5] 0.05

GSK3B isoform 2 (UniProt P49841)
inactive: [1] 0 | [2] 0.083 | [3] 0.026 | [4] -0.016 | [5] -0.008

H2AFX (UniProt P16104)
inactive: [1] 0.103 | [2] -0.353 | [3] -0.374 | [4] -0.043 | [5] 0.206

Two records picked at random from those above:
HDAC1 (UniProt Q13547)
inactive: [1] 0.004 | [2] 0 | [3] -0.004 | [4] 0.03 | [5] 0.154

H1FX (UniProt Q92522)
inactive: [1] 0.088 | [2] -0.146 | [3] -0.21 | [4] 0.135 | [5] -0.005

Remaining list, next part:

HDGFL3 (UniProt Q9Y3E1)
inactive: [1] -0.003 | [2] 0.008 | [3] 0.026 | [4] -0.02 | [5] 0.111

GSTM3 (UniProt P21266)
inactive: [1] 0.036 | [2] 0.004 | [3] 0.037 | [4] -0.043 | [5] 0.001

GSS (UniProt P48637)
inactive: [1] 0.016 | [2] 0.02 | [3] 0.025 | [4] -0.004 | [5] 0.006

HDHD2 (UniProt Q9H0R4)
inactive: [1] -0.044 | [2] 0.006 | [3] -0.003 | [4] 0.03 | [5] -0.031

HDGFL2 (UniProt Q7Z4V5)
inactive: [1] -0.043 | [2] 0.007 | [3] -0.03 | [4] -0.012 | [5] 0.065

HEPH isoform 3 (UniProt Q9BQS7)
inactive: [1] 0.005 | [2] 0.043 | [3] -0.023 | [4] 0.029 | [5] -0.002

H4C1 (UniProt P62805)
inactive: [1] 0.078 | [2] -0.248 | [3] -0.298 | [4] -0.273 | [5] 0.21

GTPBP2 (UniProt Q9BX10)
inactive: [1] -0.023 | [2] 0.019 | [3] 0.094 | [4] 0.088 | [5] -0.041

GXYLT1 (UniProt Q4G148)
inactive: [1] -0.106 | [2] 0.033 | [3] 0.017 | [4] 0.032 | [5] 0.025

HEATR5A (UniProt Q86XA9)
inactive: [1] -0.144 | [2] -0.032 | [3] 0.11 | [4] -0.055 | [5] -0.082

GTPBP10 (UniProt A4D1E9)
inactive: [1] -0.231 | [2] -0.087 | [3] 0.04 | [4] 0.013 | [5] 0.037

HDAC7 isoform 5 (UniProt Q8WUI4)
inactive: [1] -0.008 | [2] 0.039 | [3] -0.004 | [4] -0.026 | [5] -0.003

GSTM5 (UniProt P46439)
inactive: [1] -0.018 | [2] -0.009 | [3] 0.043 | [4] 0.068 | [5] 0.044

— the supplement of paper PMC10849652
